Experimental data as given in PubChem BioAssay AID504327 (National Center for Advancing Translational Sciences (NCATS), 2011).
The whole screen tested about 390,000 compounds, of which about 820 (0.21%) were called active. The inconclusive results got no clear call from the source; some entries with a clear call stand among them for comparison. Calls come from the whole dose curve; as a rule, active = well fitted inhibition curve with a large enough effect; inconclusive = small, poorly fitted or top-dose-only effect, or another doubt; inactive = no such curve, though single readings can be large or run the other way. Where the call is inconclusive, the potency comes from a doubtful curve fit.

Amino acid sequences for entries named in this document (tags omitted).
UniProt Q92830, whole entry, looked up: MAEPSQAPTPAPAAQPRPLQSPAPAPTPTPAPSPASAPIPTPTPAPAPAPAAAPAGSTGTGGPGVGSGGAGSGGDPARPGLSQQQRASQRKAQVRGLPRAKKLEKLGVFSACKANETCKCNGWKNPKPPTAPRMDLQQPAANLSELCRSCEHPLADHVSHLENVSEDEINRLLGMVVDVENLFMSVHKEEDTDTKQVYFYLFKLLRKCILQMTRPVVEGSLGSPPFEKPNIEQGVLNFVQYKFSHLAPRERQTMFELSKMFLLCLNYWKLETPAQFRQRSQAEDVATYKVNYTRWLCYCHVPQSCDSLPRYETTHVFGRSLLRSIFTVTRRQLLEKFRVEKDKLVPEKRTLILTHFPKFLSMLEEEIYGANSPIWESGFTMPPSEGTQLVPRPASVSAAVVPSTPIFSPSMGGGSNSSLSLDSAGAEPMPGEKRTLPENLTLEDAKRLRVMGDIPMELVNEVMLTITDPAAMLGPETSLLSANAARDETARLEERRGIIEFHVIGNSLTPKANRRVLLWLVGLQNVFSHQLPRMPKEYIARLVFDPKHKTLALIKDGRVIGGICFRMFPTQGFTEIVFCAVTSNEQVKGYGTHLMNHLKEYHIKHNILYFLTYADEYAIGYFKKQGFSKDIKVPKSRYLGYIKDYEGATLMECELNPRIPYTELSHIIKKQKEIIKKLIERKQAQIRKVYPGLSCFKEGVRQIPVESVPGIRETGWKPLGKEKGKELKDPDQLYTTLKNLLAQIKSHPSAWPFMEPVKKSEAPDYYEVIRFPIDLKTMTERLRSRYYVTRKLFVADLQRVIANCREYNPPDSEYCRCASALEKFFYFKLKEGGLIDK

biological target: Histone acetyltransferase KAT2A (Homo sapiens) (UniProt Q92830); assay: qHTS Assay for Inhibitors of GCN5L2; conditions: GCN5L2 HAT assay, ThioGlo1 CoA-SH fluorescence; activity change, negative = inhibition: at 58.9 µM (top of the series) unless noted
Outline: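 Fluorescence readout, Ex340nm/Em540nm: ThioGlo1 (50uM final) reacts with free CoA thiol released as 20nM GCN5L2 acetylates H3(1-25) peptide (75uM) using acetyl-CoA (70uM). Compound and enzyme sat 15 min beforehand; 20 min room-temperature reaction.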
% is set by controls: 0 for no effect and ±100 for the full control effect; potency is the fitted concentration of half-maximal effect.

Row | SMILES | activity change, negative = inhibition | Potency
1 | Cc1cc(C)cc(-n2c(O)c(C=NC3CCS(=O)(=O)C3)c3ccccc3c2=O)c1 (centres undefined) | inactive: -32.6% | –
2 | Fc1ccc(Nc2nnns2)cc1 | – | inconclusive: 28.2 µM [inhibitor, single point]
3 | Cc1cccc(N2CCN(C(=O)c3ccc(CS(=O)Cc4ccc(Cl)cc4)o3)CC2)c1C (centres undefined) | – | inconclusive: 0.141 µM [inhibitor, full curve, poor fit]
4 | COc1ccc(C(=O)OC(C(=O)c2ccccc2)c2ccccc2)cc1 (centres undefined) | – | inconclusive: 2.51 µM [inhibitor, single point]
5 | Cc1nnc(SCC(=O)NC2CCCc3c2cnn3-c2ccc(F)cc2F)o1 (centres undefined) | – | inconclusive: 7.08 µM [inhibitor, single point]
6 | COc1ccc(C(=O)NCC(C)(C)SCc2c(C)cc(C)cc2C)cc1 | – | inconclusive: 25.1 µM [inhibitor, single point]
7 | CC(=O)c1ccccc1C(=O)N1CCCC(CCC(=O)N2CCN(c3ccccn3)CC2)C1 (centres undefined) | – | inconclusive: 0.1 µM [inhibitor, full curve, poor fit]
8 | COc1ccc(Cl)cc1NC(=O)C1Cc2cc(S(=O)(=O)N3CCCC3)ccc2N1C(C)=O (centres undefined) | – | inconclusive: 25.1 µM [inhibitor, partial curve, poor fit]
9 | COCCNC(=O)c1c(C)oc2nc(C)nc(N3CCOCC3)c12 | – | inconclusive: 0.891 µM [inhibitor, single point]
10 | COc1ccc(OCC(O)CNCCOc2ccccc2OC)c(C(C)(C)C)c1 (centres undefined) | – | inconclusive: 3.55 µM [inhibitor, single point]
11 | CC/C(Cc1ccccc1)=N/NC(=O)CNC(=O)c1ccc(Cl)cc1Cl | – | inconclusive: 0.708 µM [inhibitor, single point]
12 | CCOC(=O)C(Cc1ccccc1)NS(=O)(=O)c1ccc(NC(C)=O)cc1 (centres undefined) | – | inconclusive: 6.31 µM [inhibitor, single point]
13 | COCCNC(=S)N1CCC(NC(=O)c2ccco2)CC1 | – | inconclusive: 0.447 µM [inhibitor, partial curve]
14 | O=C(NCC(c1ccco1)N1CCCC1)c1ccc(Cl)c(S(=O)(=O)N2CCc3ccccc32)c1 (centres undefined) | inactive: -5.68% | –
15 | Cc1cc(-c2ccco2)n2c(nc3ccccc32)c1C#N | – | inconclusive: 8.91 µM [inhibitor, single point]
16 | C#CCOCCOCCOCCNc1nc(N2CCN(C(=O)[C@H](CCCCN)n3cc(C(N)CC(C)C)nn3)CC2)nc(N2CCN(C(=O)[C@H](CCC(=O)O)n3cc(C(N)[C@H](C)CC)nn3)CC2)n1 (some centres undefined) | inactive: -1.99% | –
17 | O=C1NC(=NCc2ccccc2)S/C1=C/c1ccc(O)cc1 | inactive: -18.6% | –
18 | CC(OC(=O)CSc1ccc([N+](=O)[O-])cc1)C(=O)NCc1ccco1 (centres undefined) | inactive: -18.4% | –
19 | O=C(Nc1ccc(Cc2ccncc2)cc1)c1ccc(S(=O)(=O)N2CCOCC2)cc1 | – | inconclusive: 6.31 µM [inhibitor, single point]
20 | COC(=O)c1cc(S(=O)(=O)N2CCN(Cc3ccccc3)CC2)cn1C | – | inconclusive: 1 µM [inhibitor, partial curve, poor fit]
21 | COc1ccc(/C=C2\CCc3ccccc3C2=O)cc1Cn1cccn1 | – | active: 17.8 µM
22 | CC1C(=O)Nc2ccc(S(=O)(=O)N3CCN(c4ccccc4F)CC3)cc2NC1=O (centres undefined) | – | active: 39.8 µM
23 | Cc1cccc(NC(=O)CCC(=O)N/N=C/c2ccc(O)cc2O)c1 | – | inconclusive: 7.08 µM [inhibitor, single point]

Three structures out of the list, sorted by SMILES length, falling:
Row | SMILES | activity change, negative = inhibition | Potency
7 | CC(=O)c1ccccc1C(=O)N1CCCC(CCC(=O)N2CCN(c3ccccn3)CC2)C1 (centres undefined) | – | inconclusive: 0.1 µM [inhibitor, full curve, poor fit]
19 | O=C(Nc1ccc(Cc2ccncc2)cc1)c1ccc(S(=O)(=O)N2CCOCC2)cc1 | – | inconclusive: 6.31 µM [inhibitor, single point]
20 | COC(=O)c1cc(S(=O)(=O)N2CCN(Cc3ccccc3)CC2)cn1C | – | inconclusive: 1 µM [inhibitor, partial curve, poor fit]

Later entries

Row | SMILES | activity change, negative = inhibition | Potency
24 | Cc1ccc(S(=O)(=O)NC(C(=O)Oc2ccc3c(C(F)(F)F)cc(=O)oc3c2)c2ccccc2)cc1 (centres undefined) | – | inconclusive: 25.1 µM [inhibitor, partial curve]
25 | O=C(CSc1nc2ccccc2s1)N1CCCCC1 | inactive: -19% | –
26 | COc1cccc(/C=C2\N=C(c3c(-c4ccccc4)noc3C)OC2=O)c1OC | – | inconclusive: 8.91 µM [inhibitor, single point]
27 | CCN=C1S/C(=C/c2ccc(-c3ccc(Cl)cc3C(=O)O)o2)C(=O)N1CC | – | inconclusive: 3.98 µM [inhibitor, full curve, poor fit]
28 | COc1ccc(-c2nn(C)c3sc(C(=O)Nc4cccc(F)c4)cc23)cc1OC | inactive: -28.2% | –
29 | CC(OC(=O)CN1C(=O)c2ccccc2C1=O)C(=O)NCc1ccccc1 (centres undefined) | – | inconclusive: 1.12 µM [inhibitor, full curve, poor fit]
30 | Cc1[nH]c2ccccc2c1C(=O)COc1ccccc1 | – | inconclusive: 3.98 µM [inhibitor, single point]
31 | COc1ccccc1CCC(=O)Nc1ccc2c(c1)CN(Cc1ccc(C)o1)CC2 | – | inconclusive: 0.316 µM [inhibitor, full curve]
32 | CCOC(=O)N1CCN(C(=O)CN(c2cccc(Cl)c2C)S(=O)(=O)c2ccc(C)cc2)CC1 | – | inconclusive: 12.6 µM [inhibitor, partial curve, poor fit]
33 | O=C1c2ccc(O)c(O)c2C(=O)c2c(O)ccc(O)c21 | inconclusive: -31.2% [inhibitor] | –
34 | COc1ccccc1CN1CC(C(=O)NCc2nccn2C)CCC1=O (centres undefined) | – | inconclusive: 0.398 µM [inhibitor, full curve]
35 | CN(Cc1nc(-c2cccc(Cl)c2)no1)C1CCOCC1 | – | inconclusive: 0.794 µM [inhibitor, single point]
36 | OC[C@H](S)CS | – | inconclusive: 14.1 µM [inhibitor, partial curve]
37 | CCOC(=O)C1CCN(C(c2ccccc2OC)c2c(O)cc(C)n(CCOC)c2=O)CC1 (centres undefined) | inactive: -3.71% | –
38 | CC(C)C(CCNC(=O)CC(Cc1ccccc1)c1ccco1)c1ccco1 (centres undefined) | – | inconclusive: 12.6 µM [inhibitor, partial curve]
39 | COC(=O)C1=C(O)CSC1=Nc1cccc(C(F)(F)F)c1 | – | inconclusive: 39.8 µM [inhibitor, single point]
40 | Cc1nc(SCC(=O)NC(C)c2ccccc2)c2oc3ccccc3c2n1 (centres undefined) | inactive: -2.1% | –
41 | O=S(=O)(Nc1nnc(C2CC2)s1)c1ccccc1 | – | inconclusive: 28.2 µM [inhibitor, single point]
42 | CCOC(=O)N1CCC(NC(=O)c2cc(S(=O)(=O)NCCc3ccccc3)ccc2F)CC1 | inactive: -3.67% | –
43 | CCC(C)Sc1ccc(-c2nc3cnccn3c2NC2CCCCC2)cc1 (centres undefined) | – | active: 28.2 µM
44 | CC(=O)c1cccc(N(CC(=O)N2CCCCC2)S(C)(=O)=O)c1 | inconclusive: -92.4% [inhibitor] | –
45 | CC(=O)N1CCN(C(=S)c2cccc([N+](=O)[O-])c2)CC1 | inactive: -2.97% | –
46 | CCOc1ccc(/C=N/NC(=O)Cc2csc(Nc3cccc(C(F)(F)F)c3)n2)c(OCC)c1 | – | inconclusive: 4.47 µM [inhibitor, single point]

Row | SMILES | activity change, negative = inhibition | Potency
47 | CC1CCC(C(C)C)C(OCC(O)CNC(C)c2ccccc2)C1 (centres undefined) | inactive: -10.5% | –
48 | Cc1ccc(C)c(-c2ccc(C(=O)O)o2)c1 | inactive: -9.76% [at 135 µM] | –
49 | Cc1ccc(Oc2ccc(Oc3ccc(C)cc3)nn2)cc1 | – | inconclusive: 11.2 µM [inhibitor, partial curve, poor fit]
50 | COC(=O)/C=C/c1cc(O)ccc1O | inactive: -9.13% | –
51 | CCN(C(=O)c1cc2c(=O)n3ccccc3nc2n1CCCOC)C1CCCCC1 | – | inconclusive: 39.8 µM [inhibitor, single point]
52 | COc1ccc(C(=O)NCCN2C(=O)S/C(=C\c3cccnc3)C2=O)c(OC)c1OC | inactive: 1.81% | –
53 | CC1CCCCC1NC(=O)COC(=O)c1ccc(S(=O)(=O)NCc2ccco2)cc1 (centres undefined) | inactive: -13.2% | –
54 | Cc1ccccc1CSCCNC(=O)c1ccc(N(C)S(=O)(=O)c2ccccc2)cc1 | – | active: 2.24 µM
55 | Oc1c(Br)cc(Br)cc1-c1nc2ccccc2s1 | inactive: 2.23% | –
56 | O=Cc1ccc2oc3nc4n(c(=O)c3c(=O)c2c1)CCCS4 | – | inconclusive: 35.5 µM [inhibitor, single point]
57 | CCOC(=O)c1c(NC(=O)COC(=O)CC(NC(C)=O)c2ccccc2)sc(C(=O)NC)c1C (centres undefined) | – | inconclusive: 22.4 µM [inhibitor, single point]
58 | CCOc1ccc(CCNC(=O)Cn2nnc(-c3ccc(OC)c(OC)c3)n2)cc1OCC | inactive: -4.11% | –
59 | COc1ccc(-c2nc3cnc(Oc4cccc(Cl)c4)nc3n(C[C@H]3CCCO3)c2=O)cc1 | – | inconclusive: 15.8 µM [inhibitor, partial curve]
60 | Cc1cccn2c(=O)c3cc(C#N)c(=O)n(CC4CCCO4)c3nc12 (centres undefined) | – | inconclusive: 0.891 µM [inhibitor, single point]
61 | COCc1cc(CNC(=O)C2CCC(=O)N(Cc3cccc(OC)c3)C2)[nH]n1 (centres undefined) | – | inconclusive: 0.631 µM [inhibitor, full curve, poor fit]
62 | CCOc1ccc(NC(=O)CN(C)C(=O)c2ccccc2CCc2ccccc2)cc1OCC | – | inconclusive: 3.16 µM [inhibitor, partial curve, poor fit]
63 | Cc1ccc(C(=O)C2=C(O)C(=O)N(Cc3cccnc3)C2c2ccc(OC(C)C)cc2)o1 (centres undefined) | – | inconclusive: 10 µM [inhibitor, partial curve]
64 | COc1cccc(CNC(=O)c2cnc(N3CCCC3)nc2C)c1 | inactive: 3.87% | –
65 | COc1ccc(-c2nc3cnc(OC)nc3n(Cc3ccc(F)cc3)c2=O)cc1 | inactive: -23.8% | –
66 | COc1ncc2nc(-c3cc(F)cc(F)c3)c(=O)n(CCc3ccccc3)c2n1 | – | inconclusive: 31.6 µM [inhibitor, partial curve, poor fit]
67 | O=c1c(-c2ccco2)[n+]([O-])c2ccccc2n1OCc1ccccc1 | – | inconclusive: 39.8 µM [inhibitor, single point]
68 | COc1ccccc1C(C)NCC(=O)NCc1ccc(C)cc1 (centres undefined) | – | inconclusive: 35.5 µM [inhibitor, single point]
69 | C[C@@H](O)[C@H]1C(=O)N2C(C(=O)O)=C(S[C@@H]3CN[C@H](CNS(N)(=O)=O)C3)[C@H](C)[C@H]12 | inactive: -10.4% | –

Look-ups from above.
In Potency, `COc1ccccc1C(C)NCC(=O)NCc1ccc(C)cc1` (centres undefined) has the entry inconclusive: 35.5 µM [inhibitor, single point]
In Potency, `Cc1ccc(Oc2ccc(Oc3ccc(C)cc3)nn2)cc1` has the entry inconclusive: 11.2 µM [inhibitor, partial curve, poor fit]
